Source: US20120108464A1, “TEST SYSTEMS, METHODS AND USES INVOLVING AS160 PROTEIN” (SANOFI-AVENTIS, priority 2009, published 2012)
At least one compound was matched to its structure with a doubt left.

Tested on: L6-GLUT4myc cells containing AS160
Assay: Uptake of 2-deoxyglucose in response to insulin (Cytostar-T scintillating microplates)
Assay type: cell-based
Settings: rat skeletal muscle cell line inducibly expressing AS160
Protocol: For all examples the L6-GLUT4myc cells containing AS160 were grown in MEMα (PAN) supplemented with 10% fetal calf serum (FCS) (PAA, tet-free), 2 μg/ml blasticidin (Calbiochem), 0.5 μg/ml puromycin (InvivoGen), 200 μg/ml hygromycin (Invitrogen). Expression of AS160 was induced with 1 μg/ml doxycyclin (Sigma). L6-wildtype (wt) (ATCC: CRL-1458) cells were grown in MEMα+GlutaMax (Gibco) supplemented with 10% FCS (PAA, tet-free) and 1% penicillin/streptomycin (PAA). L6-GLUT4myc cells were grown in MEMα+GlutaMax (Gibco) supplemented with 10% FCS (PAA, tet-free), 1% penicillin/streptomycin (PAA) and 2 μg/ml blasticidin (Calbiochem). Expression of AS160 was induced by inbubation of the cells for 48 hours with 1 μg/ml doxycycline (Sigma). All cells were grown at 37° C. and 5% CO2 L6-GLUT4myc cells containing AS160 were incubated in starve medium (MEMα) 3-4 hours prior to each experiment.
To examine glucose uptake of the cells, the respective cells were plated in 96 well Cytostar-T scintillating microplates (Amersham/GE). After 48 hours cells were serum-starved (3-4 hours) and treated with the indicated Insuman (human insulin) concentartions a for 20 minutes. […] Nonspecific uptake was determined in the presence of 40 μM cytochalasin B (Calbiochem). […] Uptake of 2-deoxyglucose is measured as counts per […] and presented as fold over basal. […]

COC[C@H]1OC(=O)c2coc3c2[C@@]1(C)C1=C(C3=O)[C@@H]2CCC(=O)[C@@]2(C)C[C@H]1OC(C)=O [Wortmannin] was tested, and the “Effect on insulin-mediated 2-deoxyglucose uptake” value was “nearly completely abrogated”.
